Among all 2,300 compounds or so, about 1,200 (52%) were called active. So high a share suggests a set chosen from earlier hits. Inconclusive means that the source gave no clear call. Such entries were picked first, then a sample of the others. The call rests on the fitted dose curve; in most records, active means well fitted inhibition curve with a large enough effect; inconclusive means small, poorly fitted or top-dose-only effect, or effect the other way; inactive means no such curve, though single readings can be large or run the other way. A potency beside an inconclusive call is a rough fit, not a confirmed value.
Test: Confirmation screen for delayed death inhibitors of the malarial parasite plastid, 48 hour incubation; further: nearly all actives have a fitted effect of over 65% in size
Conditions: P. falciparum-infected erythrocytes, luciferase growth; series mostly up to 28.7 µM; activity change, negative = inhibition: at the top concentration
Method in brief: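 Erythrocytes infected with luciferase-expressing P. falciparum (2% hematocrit, 0.1% parasitemia) incubated with compounds 48 hours at 37 C, 5% CO2, in RPMI/Albumax. Growth inhibition scored as reduced luminescence after detection reagent.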
On the % scale 0 is the no-effect control and ±100 the full control effect; potency means the concentration at half of the fitted maximal effect.

Row | SMILES | Potency | activity change, negative = inhibition
1 | CCOc1ccccc1NC(=O)NC1Cc2ccccc2C1 | inconclusive: 12.6 µM [inhibitor, partial curve] | –
2 | O=C(N/N=C/c1cccs1)/C(=C/c1ccccc1)NC(=O)c1ccccc1 | inconclusive: 11.2 µM [inhibitor, partial curve, poor fit] | –
3 | CCCN(CCC)c1ccc(CC(=O)NC(C)Cc2ccccc2)cc1 (configuration not stated) | inconclusive: 11.2 µM [inhibitor, partial curve, poor fit] | –
4 | CCN1CCCC1CNC(=O)CS(=O)(=O)Cc1nc(-c2ccccc2C)oc1C (configuration not stated) | active: 11.2 µM | –
5 | COc1cc(/C=N/Nc2ccc3ccccc3c2)ccc1OC(=O)c1ccco1 | inconclusive: 15.8 µM [inhibitor, partial curve, poor fit] | –
6 | O=[N+]([O-])c1ccc(-c2c(-c3ccccc3)ncc3ccc(F)cc23)cc1 | inconclusive: 15.8 µM [inhibitor, single point] | –
7 | Nc1nc(CCl)nc(N(c2ccccc2)c2ccccc2)n1 | active: 8.91 µM | –
8 | Cc1ccc(/C=C/C(=O)c2ccccc(=O)c2O)cc1C | inconclusive: 14.1 µM [inhibitor, partial curve, poor fit] | –
9 | Cc1cccc(N(CC(=O)NCc2ccco2)C(=O)CCC(=O)Nc2ccccn2)c1C | inconclusive: 14.1 µM [inhibitor, single point] | –
10 | Cn1cnc([N+](=O)[O-])c1Sc1ccc(Br)cc1 | – | inactive: -13.9%
11 | S=c1[nH]nc(-c2ccco2)n1/N=C/C(Cl)=C/c1ccccc1 | inconclusive: 2.51 µM [activator, partial curve] | –
12 | O=C1C(Cl)=C(NC2CCCCC2)C(=O)N1c1ccc(Cl)cc1 | inconclusive: 17.8 µM [inhibitor, partial curve, poor fit] | –
13 | CC1(C)N=C(N)N=C(N)N1c1ccc(OCCCOc2ccccc2)c(Cl)c1 | inconclusive: 1.12 µM [inhibitor, partial curve, poor fit] | –
14 | CCOC(=O)N1CCN(C(=O)c2ccc(Cl)c(S(=O)(=O)N3CCCC3)c2)CC1 | inconclusive: 12.6 µM [inhibitor, partial curve, poor fit] | –
15 | CC1CCN(S(=O)(=O)c2ccc3c(c2)N(CC(=O)NCCCOC(C)C)C(=O)CO3)CC1 | inconclusive: 12.6 µM [inhibitor, single point] | –
16 | Cc1ccc(-c2nn3c(C)nnc3c3ccccc23)cc1S(=O)(=O)NCc1ccco1 | inconclusive: 10 µM [inhibitor, partial curve, poor fit] | –
17 | CN(CCC#N)C(=O)COC(=O)c1ccc2[nH]c3c(c2c1)CCCC3 | – | inactive: -8.6%
18 | CCOC(=O)N1CCN(CC(=O)c2ccc(O)cc2O)CC1 | inconclusive: 15.8 µM [inhibitor, single point] | –
19 | C/C(CC(=O)Nc1ccc(N(C)C)cc1)=N\NC(=O)c1ccc(F)cc1 | inconclusive: 14.1 µM [inhibitor, partial curve, poor fit] | –
20 | O=C(CSc1nnc(-c2ccco2)o1)N1c2ccccc2CCc2ccccc21 | active: 10 µM | –
21 | CC(C)CN1C2CCCC1CC(NC(=S)NCc1ccco1)C2 (configuration not stated) | inconclusive: 15.8 µM [inhibitor, partial curve, poor fit] | –
22 | COc1ccc(CSC2=NCCN2)cc1Br | inconclusive: 15.8 µM [inhibitor, single point] | –
23 | Cc1cccc(NC(=O)CN(C)S(=O)(=O)c2ccc3c(c2)n(C)c(=O)c(=O)n3C)c1C | inconclusive: 12.6 µM [inhibitor, partial curve, poor fit] | –

Row | SMILES | Potency | activity change, negative = inhibition
24 | COc1ccccc1NC(=O)c1ccc2nc(-c3ccccc3)c(-c3ccccc3)nc2c1 | – | inactive: 1.49%
25 | Cc1cc(C)c(N=C2SCC(=O)N2Cc2ccco2)c(C)c1 | inconclusive: 0.708 µM [inhibitor, full curve, poor fit] | –
26 | CN(C)S(=O)(=O)c1ccc(NCC2COc3ccccc3O2)c([N+](=O)[O-])c1 (configuration not stated) | inconclusive: 15.8 µM [inhibitor, single point] | –
27 | CC[C@H]1OC(=O)[C@H](C)[C@@H](O[C@H]2C[C@@](C)(OC)[C@@H](O)[C@H](C)O2)C(C)[C@@H](O[C@@H]2O[C@H](C)C[C@H](N(C)C)[C@@H]2O)[C@](C)(OC)C[C@@H](C)C(=O)[C@H](C)[C@@H](O)[C@]1(C)O (some centres not stated) | – | inactive: -15.5%
28 | COC(=O)COc1ccc(S(=O)(=O)NCCC2=CCCCC2)cc1Cl | – | inactive: -21.8%
29 | Cc1ccc(NC2CCCN(C(=O)CSc3ccncc3)C2)cc1C (configuration not stated) | inconclusive: 0.0316 µM [inhibitor, full curve, poor fit] | –
30 | CCN(CC)C(=O)COc1coc(CN2CCN(c3ccccc3)CC2)cc1=O | inconclusive: 12.6 µM [inhibitor, partial curve] | –
31 | Cc1ccccc1-c1nc(CS(=O)CC(=O)NC(C)CCc2ccccc2)c(C)o1 (configuration not stated) | – | inactive: -15.9%
32 | CCc1nnc(NC(=O)CSc2ncnc3c2cnn3-c2ccc(OC)cc2)s1 | inconclusive: 12.6 µM [inhibitor, partial curve, poor fit] | –
33 | CCSc1nnc(N2C(=O)c3ccc(C(=O)c4ccc(C(=O)O)cc4)cc3C2=O)s1 | – | inactive: 2.35%
34 | Cc1ccccc1OCC(=O)NCCC1=CCCCC1 | – | inactive: -31.7%
35 | O=C(CCl)Nc1c2c(nn1-c1ccccc1)CSC2 | active: 2.51 µM | –
36 | CC(Sc1nnc(-c2ccccc2)c(-c2ccccc2)n1)C(=O)N1CCc2ccccc21 (configuration not stated) | inconclusive: 15.8 µM [inhibitor, single point] | –
37 | Cc1c(-c2cccc(Cl)c2)nc2ccccc2c1C(=O)NC1CC1 | inconclusive: 15.8 µM [inhibitor, single point] | –
38 | Cc1nn(C(C)C(=O)NCCC2=CCCCC2)c(=O)c2nn(-c3ccccc3)c(C)c12 (configuration not stated) | active: 12.6 µM | –
39 | CCn1c(/C=C/N(C(C)=O)c2ccccc2)[n+](CC)c2ccc(Cl)cc21 | active: 2.82 µM | –
40 | CC1=CC(=O)O[C@@H]1[C@@]1(C)C[C@H]2OC(=O)C[C@H]3[C@@H](C)C(=O)C(O)=C1[C@@]23CO | – | inactive: -14.3%
41 | COC(=O)c1c(-c2ccc(OC)cc2)sc2ccc(N3CCOCC3)cc12 | inconclusive: 8.91 µM [inhibitor, partial curve] | –
42 | O=C(Nc1ccsc1C(=O)O)c1cccc(Oc2ccccc2)c1 | inconclusive: 3.55 µM [activator, full curve] | –
43 | Brc1cccc(OCCCCN2CCCCC2)c1 | inconclusive: 14.1 µM [inhibitor, single point] | –
44 | O=C(O)c1nn(CCSc2ccccc2F)c(=O)c2ccccc12 | – | inactive: -22.8%
45 | O=C(CCl)Nc1ccc(Sc2ccc(NC(=O)CCl)cc2)cc1 | active: 2.51 µM | –
46 | Cc1ccc(S(=O)(=O)N2CCN(CC(=O)N/N=C/c3ccco3)CC2)cc1 | inconclusive: 5.01 µM [inhibitor, partial curve] | –

Grouped by structure: the entries above containing a nitro group on carbon.
Row | SMILES | Potency | activity change, negative = inhibition
6 | O=[N+]([O-])c1ccc(-c2c(-c3ccccc3)ncc3ccc(F)cc23)cc1 | inconclusive: 15.8 µM [inhibitor, single point] | –
10 | Cn1cnc([N+](=O)[O-])c1Sc1ccc(Br)cc1 | – | inactive: -13.9%
26 | CN(C)S(=O)(=O)c1ccc(NCC2COc3ccccc3O2)c([N+](=O)[O-])c1 (configuration not stated) | inconclusive: 15.8 µM [inhibitor, single point] | –

Numbers 38 through 39, quoted:
Row | SMILES | Potency | activity change, negative = inhibition
38 | Cc1nn(C(C)C(=O)NCCC2=CCCCC2)c(=O)c2nn(-c3ccccc3)c(C)c12 (configuration not stated) | active: 12.6 µM | –
39 | CCn1c(/C=C/N(C(C)=O)c2ccccc2)[n+](CC)c2ccc(Cl)cc21 | active: 2.82 µM | –

(further entries)

Row | SMILES | Potency | activity change, negative = inhibition
47 | O=C(Cn1c(=O)sc2ccccc21)Nc1nc2c(s1)CCCC2 | – | inactive: 10%
48 | Cc1ccc2[nH]c3c(c2c1)CCCC3NC(=O)CCl (configuration not stated) | active: 4.47 µM | –
49 | COC(=O)c1ccc(NC(=O)C[n+]2ccccc2C)cc1 | inconclusive: 14.1 µM [inhibitor, single point] | –
50 | Cc1ccc(/C=N/NC(=O)CSc2nc3ccccc3c(=O)n2-c2ccccc2C)s1 | active: 11.2 µM | –
51 | O=C(CN1CCOCC1)NNc1c2ccccc2nc2ccccc12 | inconclusive: 14.1 µM [inhibitor, partial curve] | –
52 | CC(C)C(=O)Nc1cccc(C(=O)Nc2ccc(S(=O)(=O)N3CCOCC3)cc2)c1 | inconclusive: 2.82 µM [inhibitor, partial curve, poor fit] | –
53 | Cc1cccc(C)c1NC(=O)C1CCCN1S(=O)(=O)c1ccc2c(c1)n(C)c(=O)c(=O)n2C (configuration not stated) | inconclusive: 12.6 µM [inhibitor, partial curve, poor fit] | –
54 | OCCNC(=S)Nc1ccc(Cl)c(Cl)c1 | inconclusive: 3.98 µM [inhibitor, partial curve] | –
55 | S=c1[nH]nc(-c2ccccn2)n1/N=C/c1ccc(-c2ccccc2Br)o1 | – | inactive: -22.6%
56 | Cc1[nH]c(C)c(S(=O)(=O)N2CCN(c3cccc(Cl)c3)CC2)c1C(=O)N1CCCCC1 | inconclusive: 15.8 µM [inhibitor, single point] | –
57 | Cc1ccc(C(=O)Cn2nnc3ccccc32)cc1[N+](=O)[O-] | inconclusive: 7.94 µM [activator, partial curve] | –
58 | COc1cccc(CN(C)Cc2cc(=O)oc3c(C)c(C)ccc23)c1 | – | inactive: -26.2%
59 | CC(=O)Nc1cc[n+](CC(=O)c2cccc([N+](=O)[O-])c2)cc1 | inconclusive: 14.1 µM [inhibitor, single point] | –
60 | CC(C)c1[nH]nc2c1C(C1C=CCCC1)C(C#N)=C(N)O2 (configuration not stated) | inconclusive: 15.8 µM [inhibitor, single point] | –
61 | Cc1ccc(NC(=O)CCc2c[nH]c3ccccc23)nc1 | inconclusive: 17.8 µM [inhibitor, single point] | –
62 | CCN(Cc1ccncc1)C(=O)c1cc(COc2ccc(C)c(C)c2)on1 | inconclusive: 15.8 µM [inhibitor, single point] | –
63 | Cc1nc2scc(C)n2c(=O)c1S(=O)(=O)NCc1ccccc1Cl | – | inactive: -15.8%
64 | CC(=O)/C=C1/C(=O)Nc2ccccc21 | inconclusive: 15.8 µM [inhibitor, single point] | –
65 | COc1ccc2cc(C(=O)/C=C/c3cc(OC)c(O)c(OC)c3)ccc2c1 | inconclusive: 15.8 µM [inhibitor, single point] | –
66 | COc1ccc(-n2c(=O)/c(=C\c3cccs3)s/c2=C(/C#N)C(=O)N2CCN(C)CC2)cc1 | – | inactive: -15.1%
67 | Cc1cccc(C)c1NC(=O)C(=O)c1cn(C)c2ccccc12 | inconclusive: 11.2 µM [inhibitor, partial curve, poor fit] | –

— PubChem BioAssay AID504850 (National Center for Advancing Translational Sciences (NCATS), 2011)
